Laboratory results reported in US20050203110A1, “Mitotic kinesin inhibitors” (priority 2002, published 2005).
Some of these results come from one statement about several compounds together. For at least one compound, name, drawing or mass did not settle the structure.

Molecular target: T1, human KSP motor domain (KSP(367H)) (Homo sapiens, UniProt P52732)
T1 construct: were used to amplify the motor domain and the neck linker region; made in house; host or cells: E. coli BL21 (DE3), pRSETa
T1 sequence (P52732 18-359 limits assumed): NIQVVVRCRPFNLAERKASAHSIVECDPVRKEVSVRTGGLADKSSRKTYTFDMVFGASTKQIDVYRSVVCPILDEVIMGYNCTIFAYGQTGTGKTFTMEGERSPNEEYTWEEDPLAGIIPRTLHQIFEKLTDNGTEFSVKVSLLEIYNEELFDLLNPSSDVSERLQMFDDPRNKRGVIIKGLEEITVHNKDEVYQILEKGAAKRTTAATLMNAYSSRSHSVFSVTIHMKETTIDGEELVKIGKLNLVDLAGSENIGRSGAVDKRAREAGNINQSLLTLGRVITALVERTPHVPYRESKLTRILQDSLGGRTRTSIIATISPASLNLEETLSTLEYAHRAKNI
Experiment: Kinesin ATPase In Vitro Assay
Assay type: biochemical
Conditions: kinesin motor domain with microtubules, 1 mM ATP, 23° C.; free phosphate by quinaldine red/ammonium molybdate, absorbance 540 nm
Description: I. Kinesin ATPase In Vitro Assay
Cloning and Expression of Human Poly-Histidine Tagged KSP Motor Domain (KSP(367H))
Plasmids for the expression of the human KSP motor domain construct were cloned by PCR using a pBluescript full length human KSP construct (Blangy et al., Cell, vol. 83, pp1159-1169, 1995) as a template. The N-terminal primer 5′-[…] (SEQ.ID.NO.: 1) and the C-terminal primer 5′-[…] […] (SEQ.ID.NO.: 2) were used to amplify the motor domain and the neck linker region. The PCR products were digested with AseI and XhoI, ligated into the NdeI/XhoI digestion product of pRSETa (Invitrogen) and transformed into E. coli BL21 (DE3).
Cells were grown at 37° C. to an OD600 of 0.5. […]
The kinesin motor domain is incubated with microtubules, 1 mM ATP (1:1 MgCl2:Na-ATP), and compound at 23° C. in buffer containing 80 mM K-HEPES (pH 7.0), 1 mM EGTA, 1 mM DTT, 1 mM MgCl2, and 50 mM KCl. […] Free phosphate from the ATP hydrolysis reaction is measured via a quinaldine red/ammonium molybdate assay by adding 150 μl of quench C buffer containing a 2:1 ratio of quench A:quench B. Quench A contains 0.1 mg/ml quinaldine red and 0.14% polyvinyl alcohol; quench B contains 12.3 mM ammonium molybdate tetrahydrate in 1.15 M sulfuric acid. The reaction is incubated for 10 minutes at 23° C., and the absorbance of the phospho-molybdate complex is measured at 540 nm.

`CCC(c1nc2ccncc2c(=O)n1Cc1ccccc1)N(CCN(C)C)C(=O)c1ccc(Br)cc1` (stereo not shown) [Compound 4-7, 2-[1′-(N-4-bromobenzoyl)-(N,N-dimethylethylenediamino)propyl]-3-benzyl-pyrido[4,3-d]pyrimidin-4(3H)-one] gave an IC50 of at most 50 µM.
